Test results reported in paper PMC3633961.
No constants are given. Whether binding was seen depends on the method and setting. In cells and extracts the contact can be indirect. Some entries that bind do so weakly or less than the wild type. For part of these data: Where a sequence is shown, tags or fusion partners need not be part of it.

Protein sequences, listed by entry. Tags and fused reporters are not part of them. Residues count along the entry.
UniProt Q15058: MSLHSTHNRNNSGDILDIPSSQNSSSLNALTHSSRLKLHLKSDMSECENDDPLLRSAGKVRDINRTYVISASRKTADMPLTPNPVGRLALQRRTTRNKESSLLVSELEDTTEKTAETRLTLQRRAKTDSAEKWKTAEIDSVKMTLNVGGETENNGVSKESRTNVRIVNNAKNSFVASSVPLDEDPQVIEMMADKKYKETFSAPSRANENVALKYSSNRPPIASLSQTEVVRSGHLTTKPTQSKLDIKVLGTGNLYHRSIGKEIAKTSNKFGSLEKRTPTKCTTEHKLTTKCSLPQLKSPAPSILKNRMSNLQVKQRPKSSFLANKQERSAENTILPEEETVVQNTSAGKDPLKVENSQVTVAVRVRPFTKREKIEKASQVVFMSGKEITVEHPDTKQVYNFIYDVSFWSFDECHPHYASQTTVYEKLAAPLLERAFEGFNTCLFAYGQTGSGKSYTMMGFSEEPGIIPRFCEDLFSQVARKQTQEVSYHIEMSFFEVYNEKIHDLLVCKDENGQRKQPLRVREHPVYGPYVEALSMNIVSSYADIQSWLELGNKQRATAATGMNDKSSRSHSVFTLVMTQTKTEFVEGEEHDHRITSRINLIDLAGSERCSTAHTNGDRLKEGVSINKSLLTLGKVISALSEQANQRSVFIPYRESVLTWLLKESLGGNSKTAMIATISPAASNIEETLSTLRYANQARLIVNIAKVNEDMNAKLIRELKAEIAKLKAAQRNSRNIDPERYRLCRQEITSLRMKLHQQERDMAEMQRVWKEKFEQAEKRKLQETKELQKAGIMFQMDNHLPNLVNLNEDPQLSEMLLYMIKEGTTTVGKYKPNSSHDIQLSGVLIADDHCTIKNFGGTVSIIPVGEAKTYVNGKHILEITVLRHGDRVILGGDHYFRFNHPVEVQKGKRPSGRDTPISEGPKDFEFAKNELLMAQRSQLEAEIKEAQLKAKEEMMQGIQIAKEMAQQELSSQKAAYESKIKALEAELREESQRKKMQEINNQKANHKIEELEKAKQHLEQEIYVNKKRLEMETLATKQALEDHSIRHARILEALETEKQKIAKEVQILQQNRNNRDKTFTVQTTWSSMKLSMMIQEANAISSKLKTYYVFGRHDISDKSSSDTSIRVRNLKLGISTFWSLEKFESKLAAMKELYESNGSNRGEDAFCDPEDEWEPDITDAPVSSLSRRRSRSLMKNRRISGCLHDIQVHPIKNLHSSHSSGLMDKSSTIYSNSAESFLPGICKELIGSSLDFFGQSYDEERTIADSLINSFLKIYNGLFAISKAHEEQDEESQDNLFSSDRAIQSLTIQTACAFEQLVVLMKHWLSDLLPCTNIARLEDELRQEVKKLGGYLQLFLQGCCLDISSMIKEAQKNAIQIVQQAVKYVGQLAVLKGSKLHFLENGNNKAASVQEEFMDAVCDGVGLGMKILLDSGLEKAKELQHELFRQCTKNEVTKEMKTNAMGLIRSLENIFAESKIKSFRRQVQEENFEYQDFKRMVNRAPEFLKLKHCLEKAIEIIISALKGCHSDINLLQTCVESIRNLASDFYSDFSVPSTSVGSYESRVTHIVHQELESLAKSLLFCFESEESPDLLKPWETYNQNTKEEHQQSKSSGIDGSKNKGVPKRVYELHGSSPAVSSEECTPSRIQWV
UniProt P43121, residues 24-646: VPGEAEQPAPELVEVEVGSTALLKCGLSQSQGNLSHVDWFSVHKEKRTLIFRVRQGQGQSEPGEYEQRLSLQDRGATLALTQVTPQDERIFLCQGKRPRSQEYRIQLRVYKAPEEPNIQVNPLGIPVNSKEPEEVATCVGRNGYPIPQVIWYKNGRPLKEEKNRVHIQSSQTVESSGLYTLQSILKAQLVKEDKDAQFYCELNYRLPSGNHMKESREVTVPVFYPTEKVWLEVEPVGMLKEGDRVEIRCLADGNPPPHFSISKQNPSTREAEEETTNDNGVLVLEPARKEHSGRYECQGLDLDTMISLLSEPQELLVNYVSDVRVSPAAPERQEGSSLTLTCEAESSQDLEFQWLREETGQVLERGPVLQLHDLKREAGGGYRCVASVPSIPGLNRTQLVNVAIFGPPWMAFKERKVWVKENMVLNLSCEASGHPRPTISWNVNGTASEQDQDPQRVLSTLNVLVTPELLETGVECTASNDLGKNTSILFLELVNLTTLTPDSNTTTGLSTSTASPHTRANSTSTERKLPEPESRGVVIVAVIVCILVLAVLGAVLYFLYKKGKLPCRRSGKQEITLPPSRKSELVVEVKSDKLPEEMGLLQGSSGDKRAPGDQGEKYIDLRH

B1: HA-tagged cadherin 11 (CDH11) (protein, UniProt P55287-1 54-796)
chain: GWVWNQFFVIEEYTGPDPVLVGRLHSDIDSGDGNIKYILSGEGAGTIFVIDDKSGNIHATKTLDREERAQYTLMAQAVDRDTNRPLEPPSEFIVKVQDINDNPPEFLHETYHANVPERSNVGTSVIQVTASDADDPTYGNSAKLVYSILEGQPYFSVEAQTGIIRTALPNMDREAKEEYHVVIQAKDMGGHMGGLSGTTKVTITLTDVNDNPPKFPQSVYQMSVSEAAVPGEEVGRVKAKDPDIGENGLVTYNIVDGDGMESFEITTDYETQEGVIKLKKPVDFETKRAYSLKVEAANVHIDPKFISNGPFKDTVTVKISVEDADEPPMFLAPSYIHEVQENAAAGTVVGRVHAKDPDAANSPIRYSIDRHTDLDRFFTINPEDGFIKTTKPLDREETAWLNITVFAAEIHNRHQEAKVPVAIRVLDVNDNAPKFAAPYEGFICESDQTKPLSNQPIVTISADDKDDTANGPRFIFSLPPEIIHNPNFTVRDNRDNTAGVYARRGGFSRQKQDLYLLPIVISDGGIPPMSSTNTLTIKVCGCDVNGALLSCNAEAYILNAGLSTGALIAILACIVILLVIVVLFVTLRRQKKEPLIVFEEEDVRENIITYDDEGGGEEDTEAFDIATLQNPDGINGFIPRKDIKPEYQYMPRPGLRPAPNSVDVDDFINTRIQEADNDPTAPPYDSIQIYGYEGRGSVAGSLSSLESATTDSDLDYDYLQNWGPRFKKLADLYGSKDTFDDDS
B2: cadherin 11 (CDH11) (endogenous) (protein, UniProt P55287 54-796)
chain: B1 chain

Legend:
[1] = target: Flag-tagged KIF14 (human) (UniProt Q15058); experiment: co-IP; exogenous immunoprecipitation from lysate of HEK293T cells transfected with the indicated plasmids; RIPA lysis buffer, specific antibody and protein A Sepharose, washed four times with PBST; immunoblotting
[2] = target: KIF14 (endogenous) (human (endogenous in H460)) (UniProt Q15058); experiment: co-IP; endogenous immunoprecipitation from lysate of H460 cells; immunoblotting with the indicated antibodies

| Molecule | binding [1] | binding [2] |
| --- | --- | --- |
| HA-tagged melanoma cell adhesion molecule (MCAM) (from UniProt P43121-1 24-646) | binds |  |
| B1 | binds |  |
| B2 |  | binds |
